From patent US20020192214A1
No constants are given. Whether binding was seen depends on the method and setting. Some binding calls cover weakened binding; strength is not graded here.

Chains of the proteins cited; added tags and fusions are not shown. Lines headed by an entry give the natural chain unless they say otherwise; changes in a name come on top. Residues count along the entry.
UniProt P51677: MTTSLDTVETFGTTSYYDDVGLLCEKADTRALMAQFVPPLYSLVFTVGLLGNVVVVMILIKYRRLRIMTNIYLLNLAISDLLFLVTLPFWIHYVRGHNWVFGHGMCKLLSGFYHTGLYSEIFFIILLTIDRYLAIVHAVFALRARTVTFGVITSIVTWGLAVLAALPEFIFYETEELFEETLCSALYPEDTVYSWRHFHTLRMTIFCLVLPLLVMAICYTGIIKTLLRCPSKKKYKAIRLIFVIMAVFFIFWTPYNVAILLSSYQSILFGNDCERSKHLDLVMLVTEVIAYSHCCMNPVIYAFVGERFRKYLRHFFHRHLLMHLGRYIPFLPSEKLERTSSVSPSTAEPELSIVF
UniProt P80098, residues 24-99: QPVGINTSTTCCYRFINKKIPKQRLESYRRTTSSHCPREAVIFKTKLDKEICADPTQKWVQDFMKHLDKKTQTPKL
UniProt P13501, residues 24-91: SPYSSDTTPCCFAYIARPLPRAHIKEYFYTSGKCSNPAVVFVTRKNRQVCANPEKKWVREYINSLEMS

Tests used:
[1] = molecular target: human eosinophil eotaxin receptor CC CKR3, stably expressed in AML14.3D10 cells (human) (UniProt P51677); experiment: competition against 125I-MCP-3, AML14.3D10 cells expressing CC CKR3
[2] = molecular target: endogenous eosinophil eotaxin receptor (CC CKR3) on primary human eosinophils (human) (UniProt P51677); experiment: competition against 125I-eotaxin, primary eosinophils
[3] = molecular target: human eosinophil eotaxin receptor CC CKR3, stably expressed in AML14.3D10 cells (human) (UniProt P51677); experiment: competition against 125I-human eotaxin, AML14.3D10 cells expressing CC CKR3
[4] = molecular target: human eosinophil eotaxin receptor CC CKR3, stably expressed in AML14.3D10 cells (human) (UniProt P51677); experiment: competition binding, AML14.3D10 cells expressing CC CKR3

Measured: binding

MCP-3 (from UniProt P80098 24-99) (ligand)
binds: [1] | [2] | [3] | [4]

RANTES (from UniProt P13501 24-91) (ligand)
binds: [1] | [2] | [3] | [4]
